The experiment deals with endogenous SMYD2 (peritoneal macrophages) (mouse (endogenous in peritoneal macrophages)) (UniProt Q8R5A0). As to the kind of experiment: affinity purification with mass spectrometry.

By UniProt entry, the sequences of proteins in these tests, tags left out.
UniProt Q8R5A0: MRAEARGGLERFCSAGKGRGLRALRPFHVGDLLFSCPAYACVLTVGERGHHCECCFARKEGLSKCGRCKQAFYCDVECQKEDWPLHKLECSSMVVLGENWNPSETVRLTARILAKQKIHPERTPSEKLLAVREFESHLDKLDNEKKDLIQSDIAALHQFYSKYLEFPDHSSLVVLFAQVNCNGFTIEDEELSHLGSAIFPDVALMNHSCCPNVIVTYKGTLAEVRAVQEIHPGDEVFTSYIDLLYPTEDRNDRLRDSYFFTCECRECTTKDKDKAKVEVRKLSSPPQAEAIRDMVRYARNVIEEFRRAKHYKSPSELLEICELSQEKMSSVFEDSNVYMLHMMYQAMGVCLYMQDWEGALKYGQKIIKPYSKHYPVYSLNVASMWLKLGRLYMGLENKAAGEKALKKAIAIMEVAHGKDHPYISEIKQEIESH
UniProt P62137: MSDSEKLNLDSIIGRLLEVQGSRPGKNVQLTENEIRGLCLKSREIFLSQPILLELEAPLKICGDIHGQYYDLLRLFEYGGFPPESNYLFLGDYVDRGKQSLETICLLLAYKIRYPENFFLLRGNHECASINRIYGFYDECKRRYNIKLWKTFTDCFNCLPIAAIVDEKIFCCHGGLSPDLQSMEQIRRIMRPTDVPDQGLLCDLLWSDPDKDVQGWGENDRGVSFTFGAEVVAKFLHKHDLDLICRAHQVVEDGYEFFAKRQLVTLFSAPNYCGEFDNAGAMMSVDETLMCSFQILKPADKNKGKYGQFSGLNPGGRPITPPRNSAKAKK
UniProt P63087: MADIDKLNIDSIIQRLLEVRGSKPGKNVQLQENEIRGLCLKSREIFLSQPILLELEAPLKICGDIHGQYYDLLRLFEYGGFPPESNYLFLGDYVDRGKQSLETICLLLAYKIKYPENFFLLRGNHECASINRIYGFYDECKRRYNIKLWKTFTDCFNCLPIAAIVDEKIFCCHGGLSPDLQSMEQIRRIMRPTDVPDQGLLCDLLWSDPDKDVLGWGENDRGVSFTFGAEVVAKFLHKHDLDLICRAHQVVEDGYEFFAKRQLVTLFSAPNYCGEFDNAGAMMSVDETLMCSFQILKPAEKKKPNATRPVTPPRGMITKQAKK

These are yes or no findings as the source states them, for the method shown. In cells and extracts the contact can be indirect. These calls come from enrichment with a bait or labelling near it, and not all partners need be listed.

For the substance “endogenous PP1α (peritoneal macrophages) (from UniProt P62137 1-330) (enzyme)”, the binding result is “binds”.
“endogenous Ppp1cc (peritoneal macrophages) (from UniProt P63087 1-323) (enzyme)”: the binding result is listed as “binds”.

The record behind these values is PMC10482964.
